Binding data for 1 molecule are collected here from doi:10.1101/2020.08.14.217505.

This assay has as its target M. jannaschii MtrA (M. jannaschii) (UniProt Q58261). As to the kind of experiment: SEC-MALS.

No constants are given. Whether binding was seen depends on the method and setting.

B1: M. jannaschii MtrA (protein, UniProt Q58261 1-170)
chain: MANKREPAPGWPIVSGEYVVGNPESCVGVVTLGSHGLEQACIDAGAAIAGPCHTENLGIEKVVANYISNPNIRFMILCGSEVQGHITGQCFKALWENGIGDDGGIIGAKGAIPFLENVNKEAVERFRRQIVEVVDLIDCEDIGKITQAIKECLSKDPGAIDEDPFIIELE
On to B1, for which the binding result is listed as “no binding”.
